This is an account of results in article PMC9018756.

Sequences of proteins named here, by UniProt entry; tags and fusion partners are left off.
UniProt P46935: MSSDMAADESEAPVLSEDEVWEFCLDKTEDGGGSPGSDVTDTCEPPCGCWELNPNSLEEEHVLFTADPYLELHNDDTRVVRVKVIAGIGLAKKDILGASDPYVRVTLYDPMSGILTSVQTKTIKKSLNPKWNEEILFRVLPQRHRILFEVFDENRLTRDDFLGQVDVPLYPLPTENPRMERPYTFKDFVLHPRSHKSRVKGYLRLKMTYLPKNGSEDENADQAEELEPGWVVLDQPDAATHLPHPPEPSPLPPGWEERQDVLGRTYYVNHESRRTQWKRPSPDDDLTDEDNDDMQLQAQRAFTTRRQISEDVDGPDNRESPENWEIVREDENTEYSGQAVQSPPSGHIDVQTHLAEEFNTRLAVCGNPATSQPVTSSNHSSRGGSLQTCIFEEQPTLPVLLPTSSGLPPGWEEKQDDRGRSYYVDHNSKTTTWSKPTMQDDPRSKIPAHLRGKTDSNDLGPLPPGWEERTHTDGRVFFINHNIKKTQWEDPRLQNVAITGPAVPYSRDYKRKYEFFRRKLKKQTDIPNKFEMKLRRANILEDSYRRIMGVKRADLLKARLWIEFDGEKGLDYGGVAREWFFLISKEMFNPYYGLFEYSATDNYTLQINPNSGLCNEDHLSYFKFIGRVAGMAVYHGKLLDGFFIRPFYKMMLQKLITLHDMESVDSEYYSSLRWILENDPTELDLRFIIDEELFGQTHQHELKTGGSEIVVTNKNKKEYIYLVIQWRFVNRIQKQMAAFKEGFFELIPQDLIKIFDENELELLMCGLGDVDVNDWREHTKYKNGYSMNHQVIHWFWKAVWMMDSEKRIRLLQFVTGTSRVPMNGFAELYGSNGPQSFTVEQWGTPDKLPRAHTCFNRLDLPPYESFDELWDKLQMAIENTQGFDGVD
UniProt B1AVY7: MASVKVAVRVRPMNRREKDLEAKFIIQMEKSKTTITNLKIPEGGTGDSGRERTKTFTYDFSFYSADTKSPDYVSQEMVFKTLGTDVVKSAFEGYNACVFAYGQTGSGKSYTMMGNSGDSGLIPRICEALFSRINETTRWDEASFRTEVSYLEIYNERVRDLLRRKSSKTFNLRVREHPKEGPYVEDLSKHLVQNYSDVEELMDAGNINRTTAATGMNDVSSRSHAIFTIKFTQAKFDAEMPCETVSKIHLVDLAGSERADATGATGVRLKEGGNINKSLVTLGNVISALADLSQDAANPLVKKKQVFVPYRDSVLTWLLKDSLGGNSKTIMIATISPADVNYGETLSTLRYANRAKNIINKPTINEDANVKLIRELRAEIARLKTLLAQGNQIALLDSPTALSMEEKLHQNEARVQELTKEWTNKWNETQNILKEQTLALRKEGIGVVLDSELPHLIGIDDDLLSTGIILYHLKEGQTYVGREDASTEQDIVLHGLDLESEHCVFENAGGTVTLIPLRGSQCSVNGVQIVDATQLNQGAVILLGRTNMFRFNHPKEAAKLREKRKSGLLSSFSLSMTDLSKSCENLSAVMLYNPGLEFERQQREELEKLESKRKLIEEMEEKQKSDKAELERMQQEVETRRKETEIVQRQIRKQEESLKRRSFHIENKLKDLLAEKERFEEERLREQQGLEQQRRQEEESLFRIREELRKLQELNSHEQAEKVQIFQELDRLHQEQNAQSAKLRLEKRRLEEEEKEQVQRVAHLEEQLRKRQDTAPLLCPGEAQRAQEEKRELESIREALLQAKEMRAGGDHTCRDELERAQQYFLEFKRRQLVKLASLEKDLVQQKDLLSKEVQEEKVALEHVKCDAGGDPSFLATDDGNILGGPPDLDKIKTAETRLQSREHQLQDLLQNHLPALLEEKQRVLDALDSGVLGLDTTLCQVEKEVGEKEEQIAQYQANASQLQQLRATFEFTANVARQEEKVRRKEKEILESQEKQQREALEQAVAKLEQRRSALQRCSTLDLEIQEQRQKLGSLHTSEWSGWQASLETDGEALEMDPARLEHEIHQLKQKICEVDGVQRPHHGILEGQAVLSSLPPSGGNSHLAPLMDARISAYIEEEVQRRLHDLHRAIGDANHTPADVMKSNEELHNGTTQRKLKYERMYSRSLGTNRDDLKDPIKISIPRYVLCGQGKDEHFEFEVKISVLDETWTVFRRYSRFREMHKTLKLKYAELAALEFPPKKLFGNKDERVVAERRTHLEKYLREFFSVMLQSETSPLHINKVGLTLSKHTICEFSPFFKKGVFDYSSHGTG

These are yes or no findings as the source states them, for the method shown. In cells and extracts the contact can be indirect. Here binding means that the protein was enriched with, or labelled near, the bait; the list need not be complete.

This test has as its target NEDD4 (mouse (endogenous in NCU10K)) (UniProt P46935). Kind of test: affinity purification with mass spectrometry; NEDD4 precipitated with anti-NEDD4 on protein G dynabeads from LIGHT SILAC NCU10K lysate (non-denaturing buffer, 1% NP40, 150 mM NaCl, 2 h at 4 °C); compared to IgG control IP from HEAVY SILAC cells; LC-MS/MS; over 1.5-fold enrichment.

For KIF16B (from UniProt B1AVY7 1-1312), the binding entry was “binds”.
